Some of the results follow. The data scatter; read single values as rough.
Key:
[1] = compound: ClCC(=O)N[C@@H]1CCCc2ccccc12; experiment: log2 mean competition ratio of IA-DTB cysteine labelling (DMSO/compound) (log2 ratio); higher = stronger cysteine engagement by compound; conditions: treatment time: 4 h, cell line lysate: HEK293T
Protocol: (§1)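 IA-DTB competitive cysteine chemoproteomics in HEK293T RIPA lysate. Lysates were treated with compound 29 or 30 at 50 or 200 µM for 4 h, then IA-DTB (500 µM, 1 h), trypsin-digested, NeutrAvidin-enriched and analysed by diaPASEF. Competition ratio = intensity DMSO / intensity compound (n=4 treated, n=64 DMSO); binding: mean log2 CR ≥ 1 and p ≤ 0.05 plus QC filters. Target is the cysteine site.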

The chains behind the UniProt entries cited, without tags or fusion partners. Where a name states a change or a piece, a line headed by the entry shows the natural chain unless it says otherwise. Residues count along the entry.
UniProt P49458: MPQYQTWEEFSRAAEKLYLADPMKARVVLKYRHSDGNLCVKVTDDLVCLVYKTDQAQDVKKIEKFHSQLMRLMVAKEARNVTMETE
UniProt Q5M775, 565-585: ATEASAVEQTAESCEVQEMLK
UniProt Q9UBP0: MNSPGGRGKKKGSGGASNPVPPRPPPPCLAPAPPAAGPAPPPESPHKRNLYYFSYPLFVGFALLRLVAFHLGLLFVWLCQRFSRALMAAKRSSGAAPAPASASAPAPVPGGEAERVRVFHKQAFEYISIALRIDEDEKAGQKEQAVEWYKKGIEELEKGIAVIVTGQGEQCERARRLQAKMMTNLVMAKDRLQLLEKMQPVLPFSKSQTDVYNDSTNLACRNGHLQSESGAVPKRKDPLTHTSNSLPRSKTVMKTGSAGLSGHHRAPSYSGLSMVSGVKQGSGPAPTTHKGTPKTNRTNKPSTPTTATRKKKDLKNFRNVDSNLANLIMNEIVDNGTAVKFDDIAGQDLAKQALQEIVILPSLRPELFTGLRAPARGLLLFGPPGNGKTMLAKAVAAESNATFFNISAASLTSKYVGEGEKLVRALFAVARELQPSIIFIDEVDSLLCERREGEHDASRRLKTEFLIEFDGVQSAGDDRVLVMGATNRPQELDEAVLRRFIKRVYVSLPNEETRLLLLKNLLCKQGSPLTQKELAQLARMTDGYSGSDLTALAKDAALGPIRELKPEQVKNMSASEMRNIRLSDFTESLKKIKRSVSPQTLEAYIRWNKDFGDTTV
UniProt Q96SI9: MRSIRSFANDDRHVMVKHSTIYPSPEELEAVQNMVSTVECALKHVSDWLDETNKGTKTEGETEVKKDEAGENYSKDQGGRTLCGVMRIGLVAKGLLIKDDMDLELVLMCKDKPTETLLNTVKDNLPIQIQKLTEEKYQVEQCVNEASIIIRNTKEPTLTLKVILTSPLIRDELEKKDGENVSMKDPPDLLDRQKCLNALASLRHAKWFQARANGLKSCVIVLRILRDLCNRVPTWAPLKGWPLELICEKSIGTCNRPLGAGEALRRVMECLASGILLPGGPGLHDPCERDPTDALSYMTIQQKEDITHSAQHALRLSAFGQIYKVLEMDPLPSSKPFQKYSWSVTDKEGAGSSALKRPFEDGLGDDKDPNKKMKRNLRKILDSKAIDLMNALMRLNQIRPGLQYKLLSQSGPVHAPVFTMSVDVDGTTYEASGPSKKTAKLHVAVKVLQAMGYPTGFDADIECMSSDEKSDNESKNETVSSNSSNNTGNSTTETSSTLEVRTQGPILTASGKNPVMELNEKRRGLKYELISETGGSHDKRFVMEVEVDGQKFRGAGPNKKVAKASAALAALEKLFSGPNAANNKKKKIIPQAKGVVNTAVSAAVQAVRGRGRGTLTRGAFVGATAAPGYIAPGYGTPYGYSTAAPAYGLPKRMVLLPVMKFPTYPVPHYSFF
UniProt Q9Y6Q2: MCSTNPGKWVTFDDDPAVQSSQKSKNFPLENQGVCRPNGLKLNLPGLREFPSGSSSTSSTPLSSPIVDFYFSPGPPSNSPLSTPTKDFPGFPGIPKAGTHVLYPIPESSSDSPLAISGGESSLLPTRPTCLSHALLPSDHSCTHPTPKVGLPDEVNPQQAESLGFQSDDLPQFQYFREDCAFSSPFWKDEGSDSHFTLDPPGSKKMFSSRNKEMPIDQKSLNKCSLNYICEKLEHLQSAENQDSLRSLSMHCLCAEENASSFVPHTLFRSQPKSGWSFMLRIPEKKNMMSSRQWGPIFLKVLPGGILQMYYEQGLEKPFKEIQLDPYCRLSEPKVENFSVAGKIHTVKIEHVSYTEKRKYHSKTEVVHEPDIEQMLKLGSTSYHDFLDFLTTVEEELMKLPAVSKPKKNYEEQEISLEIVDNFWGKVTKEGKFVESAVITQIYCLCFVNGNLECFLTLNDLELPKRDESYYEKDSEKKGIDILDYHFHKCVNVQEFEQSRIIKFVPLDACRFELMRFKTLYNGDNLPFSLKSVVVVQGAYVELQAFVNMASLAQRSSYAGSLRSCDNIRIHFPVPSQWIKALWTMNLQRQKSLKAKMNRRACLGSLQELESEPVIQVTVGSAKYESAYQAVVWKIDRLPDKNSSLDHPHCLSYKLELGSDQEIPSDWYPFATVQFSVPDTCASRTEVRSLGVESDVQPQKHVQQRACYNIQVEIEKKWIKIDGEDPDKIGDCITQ
UniProt Q86XZ4: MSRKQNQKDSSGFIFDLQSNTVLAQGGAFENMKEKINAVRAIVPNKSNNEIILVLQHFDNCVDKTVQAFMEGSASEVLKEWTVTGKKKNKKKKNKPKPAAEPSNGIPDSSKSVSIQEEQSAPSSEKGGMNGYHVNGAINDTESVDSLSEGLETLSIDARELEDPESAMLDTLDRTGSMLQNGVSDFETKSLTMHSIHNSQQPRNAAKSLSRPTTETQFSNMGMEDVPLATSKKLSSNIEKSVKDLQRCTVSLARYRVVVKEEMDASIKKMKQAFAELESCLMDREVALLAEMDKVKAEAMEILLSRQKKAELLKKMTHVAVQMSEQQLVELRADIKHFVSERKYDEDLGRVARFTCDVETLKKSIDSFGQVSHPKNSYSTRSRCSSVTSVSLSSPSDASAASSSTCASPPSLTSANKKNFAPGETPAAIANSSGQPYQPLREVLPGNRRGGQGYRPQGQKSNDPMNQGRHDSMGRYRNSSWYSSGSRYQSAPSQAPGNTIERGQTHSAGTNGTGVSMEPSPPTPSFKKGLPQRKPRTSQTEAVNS
UniProt Q96FJ0: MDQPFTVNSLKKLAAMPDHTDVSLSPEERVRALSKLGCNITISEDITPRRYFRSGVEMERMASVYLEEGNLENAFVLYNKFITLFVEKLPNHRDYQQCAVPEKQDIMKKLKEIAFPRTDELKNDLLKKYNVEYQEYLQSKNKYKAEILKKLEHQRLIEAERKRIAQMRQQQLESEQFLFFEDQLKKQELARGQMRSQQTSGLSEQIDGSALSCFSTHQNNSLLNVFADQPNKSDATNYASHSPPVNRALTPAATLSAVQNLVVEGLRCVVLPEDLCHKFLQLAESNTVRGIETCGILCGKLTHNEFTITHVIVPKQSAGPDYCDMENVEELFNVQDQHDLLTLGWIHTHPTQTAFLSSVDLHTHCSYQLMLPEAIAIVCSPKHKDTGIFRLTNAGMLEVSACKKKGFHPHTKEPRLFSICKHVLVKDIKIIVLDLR
UniProt Q9UQ35: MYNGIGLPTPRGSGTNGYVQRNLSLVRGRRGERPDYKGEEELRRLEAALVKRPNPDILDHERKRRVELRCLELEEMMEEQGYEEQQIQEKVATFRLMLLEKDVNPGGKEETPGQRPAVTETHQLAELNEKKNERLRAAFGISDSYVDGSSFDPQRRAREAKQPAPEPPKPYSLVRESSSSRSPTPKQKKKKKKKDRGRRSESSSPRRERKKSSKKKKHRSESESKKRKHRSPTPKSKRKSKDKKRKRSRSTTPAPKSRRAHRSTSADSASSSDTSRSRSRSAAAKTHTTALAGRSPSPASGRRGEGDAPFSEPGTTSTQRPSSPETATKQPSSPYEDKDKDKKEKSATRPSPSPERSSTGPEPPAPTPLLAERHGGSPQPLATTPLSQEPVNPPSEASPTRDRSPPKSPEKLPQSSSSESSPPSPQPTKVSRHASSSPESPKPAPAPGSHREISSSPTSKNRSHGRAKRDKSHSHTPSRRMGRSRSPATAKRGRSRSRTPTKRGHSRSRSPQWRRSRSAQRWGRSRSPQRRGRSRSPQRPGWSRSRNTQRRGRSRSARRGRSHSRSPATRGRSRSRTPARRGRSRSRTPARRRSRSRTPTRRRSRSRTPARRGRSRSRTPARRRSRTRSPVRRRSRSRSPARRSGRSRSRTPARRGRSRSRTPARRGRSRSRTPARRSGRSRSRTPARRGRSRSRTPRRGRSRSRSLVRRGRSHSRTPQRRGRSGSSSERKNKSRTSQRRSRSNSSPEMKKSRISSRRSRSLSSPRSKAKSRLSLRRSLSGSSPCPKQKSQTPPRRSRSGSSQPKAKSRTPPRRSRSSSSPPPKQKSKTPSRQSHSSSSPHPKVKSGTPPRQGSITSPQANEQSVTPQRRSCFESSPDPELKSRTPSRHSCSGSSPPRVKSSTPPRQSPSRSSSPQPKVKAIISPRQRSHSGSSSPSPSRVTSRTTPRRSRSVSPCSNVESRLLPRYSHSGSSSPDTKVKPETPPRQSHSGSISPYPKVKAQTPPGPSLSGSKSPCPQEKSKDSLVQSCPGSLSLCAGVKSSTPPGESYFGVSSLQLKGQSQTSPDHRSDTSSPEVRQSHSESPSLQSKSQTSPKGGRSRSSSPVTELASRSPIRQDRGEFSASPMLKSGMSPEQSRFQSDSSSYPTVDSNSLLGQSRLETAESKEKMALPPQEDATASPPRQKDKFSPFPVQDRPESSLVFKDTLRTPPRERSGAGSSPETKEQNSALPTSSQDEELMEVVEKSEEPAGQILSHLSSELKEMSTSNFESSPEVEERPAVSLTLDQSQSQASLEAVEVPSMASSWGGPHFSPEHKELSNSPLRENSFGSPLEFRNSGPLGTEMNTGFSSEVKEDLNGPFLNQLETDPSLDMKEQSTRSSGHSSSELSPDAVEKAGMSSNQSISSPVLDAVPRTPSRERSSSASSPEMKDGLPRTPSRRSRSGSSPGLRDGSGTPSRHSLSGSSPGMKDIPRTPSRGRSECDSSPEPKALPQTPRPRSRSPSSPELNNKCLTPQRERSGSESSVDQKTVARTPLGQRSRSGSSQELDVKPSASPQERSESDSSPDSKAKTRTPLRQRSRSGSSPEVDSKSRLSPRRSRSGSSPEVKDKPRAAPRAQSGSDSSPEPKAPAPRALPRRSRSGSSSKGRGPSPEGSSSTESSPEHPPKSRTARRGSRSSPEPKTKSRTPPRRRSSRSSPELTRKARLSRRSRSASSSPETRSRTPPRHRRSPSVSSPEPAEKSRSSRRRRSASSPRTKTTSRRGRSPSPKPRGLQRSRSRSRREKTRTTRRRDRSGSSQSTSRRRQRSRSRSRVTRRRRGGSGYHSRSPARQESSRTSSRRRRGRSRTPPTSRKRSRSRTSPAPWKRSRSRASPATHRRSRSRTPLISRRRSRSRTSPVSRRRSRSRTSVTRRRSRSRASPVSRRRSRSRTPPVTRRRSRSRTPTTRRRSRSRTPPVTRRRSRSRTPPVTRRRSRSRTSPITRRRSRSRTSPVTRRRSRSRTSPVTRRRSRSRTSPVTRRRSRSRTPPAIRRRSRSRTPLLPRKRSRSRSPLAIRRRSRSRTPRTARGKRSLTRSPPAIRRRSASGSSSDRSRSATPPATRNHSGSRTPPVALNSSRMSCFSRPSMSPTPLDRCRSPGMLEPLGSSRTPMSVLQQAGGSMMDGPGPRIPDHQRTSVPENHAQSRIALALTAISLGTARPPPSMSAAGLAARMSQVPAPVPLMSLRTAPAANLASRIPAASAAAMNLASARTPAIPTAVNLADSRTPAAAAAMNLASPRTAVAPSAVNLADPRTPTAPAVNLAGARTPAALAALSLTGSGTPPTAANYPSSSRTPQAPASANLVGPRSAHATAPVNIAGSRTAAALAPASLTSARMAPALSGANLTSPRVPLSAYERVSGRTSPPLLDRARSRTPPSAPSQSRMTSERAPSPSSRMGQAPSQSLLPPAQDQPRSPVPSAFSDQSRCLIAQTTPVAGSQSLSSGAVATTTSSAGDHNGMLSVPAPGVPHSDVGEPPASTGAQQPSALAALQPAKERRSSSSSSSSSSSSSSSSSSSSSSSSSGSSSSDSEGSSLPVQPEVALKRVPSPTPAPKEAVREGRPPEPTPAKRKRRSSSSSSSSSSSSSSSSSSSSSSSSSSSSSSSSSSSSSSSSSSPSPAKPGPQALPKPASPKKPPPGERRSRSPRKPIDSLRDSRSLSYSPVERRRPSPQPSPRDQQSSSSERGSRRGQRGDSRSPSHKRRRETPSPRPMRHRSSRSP
UniProt Q8WXA9, 483-504: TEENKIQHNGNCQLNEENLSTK
UniProt O76094: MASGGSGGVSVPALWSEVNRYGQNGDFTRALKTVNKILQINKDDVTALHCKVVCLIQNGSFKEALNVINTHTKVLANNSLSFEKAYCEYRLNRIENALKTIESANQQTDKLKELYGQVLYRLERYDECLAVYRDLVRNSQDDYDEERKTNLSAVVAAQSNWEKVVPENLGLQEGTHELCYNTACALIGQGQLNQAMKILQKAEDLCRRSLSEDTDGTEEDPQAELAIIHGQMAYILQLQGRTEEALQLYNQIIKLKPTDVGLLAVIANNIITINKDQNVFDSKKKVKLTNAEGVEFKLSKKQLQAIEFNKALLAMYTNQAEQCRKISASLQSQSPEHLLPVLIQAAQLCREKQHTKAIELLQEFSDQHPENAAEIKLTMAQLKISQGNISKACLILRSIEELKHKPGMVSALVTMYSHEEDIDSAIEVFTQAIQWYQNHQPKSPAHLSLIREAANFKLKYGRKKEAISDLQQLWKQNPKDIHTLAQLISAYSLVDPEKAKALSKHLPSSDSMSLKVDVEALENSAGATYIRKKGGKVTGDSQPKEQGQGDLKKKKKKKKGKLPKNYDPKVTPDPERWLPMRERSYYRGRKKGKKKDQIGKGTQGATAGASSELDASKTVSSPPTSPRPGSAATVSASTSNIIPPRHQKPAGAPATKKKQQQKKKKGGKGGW

[2] = compound: ClCC(=O)N[C@H]1CCCc2ccccc12; experiment: as above; conditions: treatment time: 4 h, cell line lysate: HEK293T
Protocol: as §1

| Target | log2 mean competition ratio ([1]; 50 µM) | log2 mean competition ratio ([1]; 200 µM) | log2 mean competition ratio ([2]; 50 µM) | log2 mean competition ratio ([2]; 200 µM) |
| --- | --- | --- | --- | --- |
| SPTLC2 C438 (UniProt O15270) | 0.145 | -0.131 | -0.287 | -0.226 |
| SRP9 C39 (UniProt P49458) | 0.0185 | -0.155 | -0.0572 | -0.178 |
| SYMPK C686 (UniProt Q92797) | -0.149 | 0.149 | -0.319 | 0.105 |
| SRSF5 C63 (UniProt Q13243) | -0.225 | 0.316 | -0.174 | 0.327 |
| SPECC1 C578 (UniProt Q5M775) | -0.113 | -0.118 | 0.121 | -0.0886 |
| SPAST C171 (UniProt Q9UBP0) | -0.193 | 1.74 | 0.0709 | 0.838 |
| STRBP C142 (UniProt Q96SI9) | -0.0313 | 0.154 | 0.233 | -0.245 |
| STBD1 C108 (UniProt O95210) | -0.161 | 0.176 | -0.104 | 0.343 |
| STAT1 C155 (UniProt P42224) | -0.0749 | 0.136 | 0.0101 | 0.0735 |
| STAU2 C140 (UniProt Q9NUL3) | 0.52 | -0.36 | 0.524 | -0.27 |
| SYNE1 C8703 (UniProt Q8NF91) | 0.19 | -0.381 | 0.631 | -0.202 |
| STK39 C450 (UniProt Q9UEW8) | 0.36 | -0.115 | -0.136 | -0.134 |
| STX7 C28 (UniProt O15400) | -0.169 | -0.216 |  | -0.339 |
| STON1 C35 (UniProt Q9Y6Q2) | 0.393 | 0.0621 | -0.125 | 0.1 |
| SYNE2 C1931 (UniProt Q8WXH0) | 0.0151 | 0.0649 | -0.0594 | -0.0945 |
| SPATS2 C61 (UniProt Q86XZ4) | 0.324 | 0.309 | 0.261 | 0.144 |
| STAMBPL1 C98 (UniProt Q96FJ0) | -0.208 | -0.076 | -0.0708 | 0.00406 |
| STXBP3 C354 (UniProt O00186) | -0.175 | 0.507 | -0.318 | 0.301 |
| SYNE2 C90 (UniProt Q8WXH0) | -0.176 | 0.298 | -0.142 | 0.175 |
| SPINT2 C179 | 0.0169 | 0.474 | 0.0712 | 0.391 |
| STAT5B C688 (UniProt P51692) | 0.324 | 0.0157 | 0.184 | 0.034 |
| SYNE2 C6739 (UniProt Q8WXH0) | 0.0179 | -0.0294 | -0.0117 | 0.112 |

| Target | log2 mean competition ratio ([1]; 50 µM) | log2 mean competition ratio ([1]; 200 µM) | log2 mean competition ratio ([2]; 50 µM) | log2 mean competition ratio ([2]; 200 µM) |
| --- | --- | --- | --- | --- |
| SUPT5H C740 (UniProt O00267) | -0.00125 | -0.00889 | 0.0818 | -0.117 |
| SPTAN1 C315 (UniProt Q13813) | -0.0247 | -0.137 | 0.238 | -0.196 |
| SRGAP2 C370 | 0.237 | 0.0325 | 0.153 | -0.051 |
| SRBD1 C294 (UniProt Q8N5C6) | -0.088 | 0.0174 |  | 0.0934 |
| SRCAP C2042 (UniProt Q6ZRS2) | 0.309 | 0.0263 | 0.602 | 0.0513 |
| SRPK1 C502 (UniProt Q96SB4) | -0.0106 | 0.23 | -0.185 | -0.0295 |
| SUGT1 C49 (UniProt Q9Y2Z0) | -0.062 | -0.129 | -0.227 | -0.214 |
| STIL C134 (UniProt Q15468) | 0.047 | 0.25 | -0.125 | -0.087 |
| STUB1 C199 (UniProt Q9UNE7) | -0.0801 | -0.361 | 0.636 | -0.0529 |
| SWSAP1 C183 (UniProt Q6NVH7) | -0.0417 | 0.0271 | -0.167 | 0.000639 |
| SPTBN2 C1474 (UniProt O15020) | 0.205 | 0.0796 | 0.413 | 0.0615 |
| SSH1 C564 | 0.425 | 0.629 | -0.276 | -0.241 |
| SYNE2 C6121 (UniProt Q8WXH0) | 0.312 | 0.22 | 0.271 | 0.551 |
| STX5 C68 (UniProt Q13190) | 0.516 | 0.48 | 0.135 | 0.307 |
| SYNE2 C2480 (UniProt Q8WXH0) | 0.0554 | 0.0955 | 0.0696 | -0.00476 |
| STRAP C305 (UniProt Q9Y3F4) | -0.0818 | -0.172 | -0.584 | -0.153 |
| SRRM2 C1480 (UniProt Q9UQ35) | -0.13 | 0.181 | -0.16 | 0.27 |
| SREK1 C494 (UniProt Q8WXA9) | -0.416 | 0.0883 | -0.614 | 0.0042 |
| STIP1 C461 | -0.259 | -0.112 | 0.0699 | 0.113 |
| SPTLC2 C188 (UniProt O15270) | -0.0457 | 0.00195 | -0.0691 | -0.0602 |
| SRP72 C50 (UniProt O76094) | -0.0299 | 0.147 | -0.576 | 0.0112 |
| SYNE2 C5348 (UniProt Q8WXH0) | 0.111 | -0.173 | -0.346 | 0.0741 |

A different layout for part of the listing above.
Target	log2 mean competition ratio ([1]; 50 µM)	log2 mean competition ratio ([1]; 200 µM)	log2 mean competition ratio ([2]; 50 µM)	log2 mean competition ratio ([2]; 200 µM)
SREK1 C494 (UniProt Q8WXA9)	-0.416	0.0883	-0.614	0.0042
STIP1 C461	-0.259	-0.112	0.0699	0.113
